Reference: the supplement of paper PMC10849652
The other results are listed elsewhere or left out.

Amino acid sequences for entries named in this document (tags omitted). A change or cut given only in a name is not applied to a line headed by its entry.
UniProt P30838: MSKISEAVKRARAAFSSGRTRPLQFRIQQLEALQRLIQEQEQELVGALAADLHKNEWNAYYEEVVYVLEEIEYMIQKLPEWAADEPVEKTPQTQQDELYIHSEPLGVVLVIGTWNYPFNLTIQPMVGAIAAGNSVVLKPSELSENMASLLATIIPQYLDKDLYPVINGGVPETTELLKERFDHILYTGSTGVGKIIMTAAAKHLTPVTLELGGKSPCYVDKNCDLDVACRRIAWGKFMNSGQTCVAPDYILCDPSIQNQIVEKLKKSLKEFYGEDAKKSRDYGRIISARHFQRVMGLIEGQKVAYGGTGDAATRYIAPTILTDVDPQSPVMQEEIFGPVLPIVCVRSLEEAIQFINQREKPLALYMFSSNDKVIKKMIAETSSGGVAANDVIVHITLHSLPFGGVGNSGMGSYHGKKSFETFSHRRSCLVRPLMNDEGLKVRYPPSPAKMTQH
UniProt P13196: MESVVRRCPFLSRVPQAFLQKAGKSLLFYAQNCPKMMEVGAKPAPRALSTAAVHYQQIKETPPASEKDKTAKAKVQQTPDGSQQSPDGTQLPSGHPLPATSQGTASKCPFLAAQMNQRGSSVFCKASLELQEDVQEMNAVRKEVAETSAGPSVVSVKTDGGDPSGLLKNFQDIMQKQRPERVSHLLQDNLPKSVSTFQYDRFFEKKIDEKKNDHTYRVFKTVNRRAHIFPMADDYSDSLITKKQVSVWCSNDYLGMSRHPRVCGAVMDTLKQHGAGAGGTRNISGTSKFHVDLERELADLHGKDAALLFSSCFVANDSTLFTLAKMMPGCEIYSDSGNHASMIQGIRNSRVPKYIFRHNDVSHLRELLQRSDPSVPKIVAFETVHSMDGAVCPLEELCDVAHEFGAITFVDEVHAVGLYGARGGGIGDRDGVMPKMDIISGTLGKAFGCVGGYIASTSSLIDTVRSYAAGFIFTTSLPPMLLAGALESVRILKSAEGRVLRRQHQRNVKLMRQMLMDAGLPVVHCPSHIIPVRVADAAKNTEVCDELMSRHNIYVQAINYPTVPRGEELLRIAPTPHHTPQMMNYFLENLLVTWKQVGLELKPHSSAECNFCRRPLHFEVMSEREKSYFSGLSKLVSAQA
UniProt Q8N6D5: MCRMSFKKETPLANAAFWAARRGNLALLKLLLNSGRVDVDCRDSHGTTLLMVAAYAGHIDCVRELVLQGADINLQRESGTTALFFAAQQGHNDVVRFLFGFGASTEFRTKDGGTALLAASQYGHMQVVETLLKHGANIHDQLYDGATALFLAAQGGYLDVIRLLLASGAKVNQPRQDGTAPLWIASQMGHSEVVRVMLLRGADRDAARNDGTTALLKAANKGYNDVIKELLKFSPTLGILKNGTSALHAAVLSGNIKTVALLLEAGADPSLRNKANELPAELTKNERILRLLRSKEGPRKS
UniProt Q9NYG5, whole entry, looked up: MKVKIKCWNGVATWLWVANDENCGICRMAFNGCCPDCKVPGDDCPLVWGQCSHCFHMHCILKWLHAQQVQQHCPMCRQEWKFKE
UniProt P56377: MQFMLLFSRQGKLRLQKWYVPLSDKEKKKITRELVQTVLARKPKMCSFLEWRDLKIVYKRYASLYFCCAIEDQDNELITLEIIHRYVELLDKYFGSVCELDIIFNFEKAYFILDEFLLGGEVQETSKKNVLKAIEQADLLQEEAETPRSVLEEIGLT
UniProt Q9BXX3: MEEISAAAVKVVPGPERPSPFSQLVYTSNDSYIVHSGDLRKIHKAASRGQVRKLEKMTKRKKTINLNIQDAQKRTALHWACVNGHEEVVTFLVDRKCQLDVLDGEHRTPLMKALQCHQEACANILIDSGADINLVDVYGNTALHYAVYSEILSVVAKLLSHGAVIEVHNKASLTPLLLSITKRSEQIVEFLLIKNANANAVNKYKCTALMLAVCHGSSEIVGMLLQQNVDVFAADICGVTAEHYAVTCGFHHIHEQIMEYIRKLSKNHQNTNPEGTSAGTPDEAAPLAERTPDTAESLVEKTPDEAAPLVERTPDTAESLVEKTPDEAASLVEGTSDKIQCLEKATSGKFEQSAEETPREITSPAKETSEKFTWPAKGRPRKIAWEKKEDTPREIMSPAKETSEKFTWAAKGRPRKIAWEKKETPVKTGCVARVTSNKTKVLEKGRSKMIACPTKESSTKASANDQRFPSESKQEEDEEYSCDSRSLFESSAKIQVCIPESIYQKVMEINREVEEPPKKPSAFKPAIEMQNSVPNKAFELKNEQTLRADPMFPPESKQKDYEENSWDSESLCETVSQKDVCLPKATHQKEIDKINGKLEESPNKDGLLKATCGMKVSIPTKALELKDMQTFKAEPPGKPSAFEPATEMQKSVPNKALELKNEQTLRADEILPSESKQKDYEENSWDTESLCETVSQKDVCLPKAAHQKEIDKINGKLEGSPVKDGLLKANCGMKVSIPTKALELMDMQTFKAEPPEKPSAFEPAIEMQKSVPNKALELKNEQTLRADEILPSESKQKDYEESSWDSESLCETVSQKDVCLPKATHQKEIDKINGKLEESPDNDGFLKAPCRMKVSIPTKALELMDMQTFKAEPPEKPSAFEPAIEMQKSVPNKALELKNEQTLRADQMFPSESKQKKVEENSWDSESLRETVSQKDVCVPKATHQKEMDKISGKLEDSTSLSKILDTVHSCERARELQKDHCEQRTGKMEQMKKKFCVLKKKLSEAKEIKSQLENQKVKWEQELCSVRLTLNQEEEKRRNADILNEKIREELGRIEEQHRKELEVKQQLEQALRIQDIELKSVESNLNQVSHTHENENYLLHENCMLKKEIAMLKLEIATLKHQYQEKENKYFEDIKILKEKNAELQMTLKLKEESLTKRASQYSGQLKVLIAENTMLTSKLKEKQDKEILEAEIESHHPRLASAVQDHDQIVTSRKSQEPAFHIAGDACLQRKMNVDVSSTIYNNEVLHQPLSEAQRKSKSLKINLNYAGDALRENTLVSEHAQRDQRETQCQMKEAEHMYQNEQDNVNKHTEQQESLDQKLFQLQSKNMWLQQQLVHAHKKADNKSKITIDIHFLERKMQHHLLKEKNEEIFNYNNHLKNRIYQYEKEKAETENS
UniProt Q9BT30: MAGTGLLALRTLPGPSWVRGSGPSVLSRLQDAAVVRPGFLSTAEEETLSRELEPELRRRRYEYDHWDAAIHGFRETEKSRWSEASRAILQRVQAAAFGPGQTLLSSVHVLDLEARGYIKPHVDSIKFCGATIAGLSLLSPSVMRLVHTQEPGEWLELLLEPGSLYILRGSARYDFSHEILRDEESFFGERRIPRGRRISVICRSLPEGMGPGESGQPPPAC
UniProt Q63HQ0: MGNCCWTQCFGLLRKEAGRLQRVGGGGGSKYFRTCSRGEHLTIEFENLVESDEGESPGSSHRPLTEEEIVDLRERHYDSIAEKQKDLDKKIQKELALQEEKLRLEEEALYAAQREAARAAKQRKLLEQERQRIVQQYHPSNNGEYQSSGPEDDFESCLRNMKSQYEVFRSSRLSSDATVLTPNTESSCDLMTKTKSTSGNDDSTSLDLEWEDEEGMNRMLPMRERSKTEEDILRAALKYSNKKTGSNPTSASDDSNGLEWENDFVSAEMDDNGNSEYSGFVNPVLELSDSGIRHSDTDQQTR
UniProt P51648: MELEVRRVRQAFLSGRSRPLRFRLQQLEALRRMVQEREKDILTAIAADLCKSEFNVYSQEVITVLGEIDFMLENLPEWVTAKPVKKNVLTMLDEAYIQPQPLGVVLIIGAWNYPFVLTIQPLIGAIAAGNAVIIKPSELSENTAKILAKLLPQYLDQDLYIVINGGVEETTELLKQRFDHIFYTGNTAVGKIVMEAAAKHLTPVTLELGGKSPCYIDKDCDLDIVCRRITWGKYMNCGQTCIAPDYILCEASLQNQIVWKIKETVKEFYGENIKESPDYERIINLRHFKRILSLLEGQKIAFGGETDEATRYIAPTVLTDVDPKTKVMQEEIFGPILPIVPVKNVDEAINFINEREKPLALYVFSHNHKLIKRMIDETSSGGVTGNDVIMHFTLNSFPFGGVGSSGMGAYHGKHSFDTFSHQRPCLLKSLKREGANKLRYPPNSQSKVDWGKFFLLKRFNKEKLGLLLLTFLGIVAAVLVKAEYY
UniProt Q6DCA0: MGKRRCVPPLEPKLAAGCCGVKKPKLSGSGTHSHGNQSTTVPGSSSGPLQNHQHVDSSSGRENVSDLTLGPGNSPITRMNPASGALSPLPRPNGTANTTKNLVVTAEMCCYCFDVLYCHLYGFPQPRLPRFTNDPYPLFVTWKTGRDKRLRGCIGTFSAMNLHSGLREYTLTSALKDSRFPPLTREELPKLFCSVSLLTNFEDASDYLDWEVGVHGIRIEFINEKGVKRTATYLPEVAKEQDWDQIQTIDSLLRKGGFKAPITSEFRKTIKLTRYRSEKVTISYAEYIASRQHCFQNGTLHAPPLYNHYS
UniProt Q96PC3: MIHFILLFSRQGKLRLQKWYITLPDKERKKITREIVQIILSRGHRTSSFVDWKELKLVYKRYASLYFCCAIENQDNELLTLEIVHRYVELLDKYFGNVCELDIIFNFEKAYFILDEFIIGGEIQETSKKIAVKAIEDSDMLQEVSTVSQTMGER
UniProt Q9ULJ7: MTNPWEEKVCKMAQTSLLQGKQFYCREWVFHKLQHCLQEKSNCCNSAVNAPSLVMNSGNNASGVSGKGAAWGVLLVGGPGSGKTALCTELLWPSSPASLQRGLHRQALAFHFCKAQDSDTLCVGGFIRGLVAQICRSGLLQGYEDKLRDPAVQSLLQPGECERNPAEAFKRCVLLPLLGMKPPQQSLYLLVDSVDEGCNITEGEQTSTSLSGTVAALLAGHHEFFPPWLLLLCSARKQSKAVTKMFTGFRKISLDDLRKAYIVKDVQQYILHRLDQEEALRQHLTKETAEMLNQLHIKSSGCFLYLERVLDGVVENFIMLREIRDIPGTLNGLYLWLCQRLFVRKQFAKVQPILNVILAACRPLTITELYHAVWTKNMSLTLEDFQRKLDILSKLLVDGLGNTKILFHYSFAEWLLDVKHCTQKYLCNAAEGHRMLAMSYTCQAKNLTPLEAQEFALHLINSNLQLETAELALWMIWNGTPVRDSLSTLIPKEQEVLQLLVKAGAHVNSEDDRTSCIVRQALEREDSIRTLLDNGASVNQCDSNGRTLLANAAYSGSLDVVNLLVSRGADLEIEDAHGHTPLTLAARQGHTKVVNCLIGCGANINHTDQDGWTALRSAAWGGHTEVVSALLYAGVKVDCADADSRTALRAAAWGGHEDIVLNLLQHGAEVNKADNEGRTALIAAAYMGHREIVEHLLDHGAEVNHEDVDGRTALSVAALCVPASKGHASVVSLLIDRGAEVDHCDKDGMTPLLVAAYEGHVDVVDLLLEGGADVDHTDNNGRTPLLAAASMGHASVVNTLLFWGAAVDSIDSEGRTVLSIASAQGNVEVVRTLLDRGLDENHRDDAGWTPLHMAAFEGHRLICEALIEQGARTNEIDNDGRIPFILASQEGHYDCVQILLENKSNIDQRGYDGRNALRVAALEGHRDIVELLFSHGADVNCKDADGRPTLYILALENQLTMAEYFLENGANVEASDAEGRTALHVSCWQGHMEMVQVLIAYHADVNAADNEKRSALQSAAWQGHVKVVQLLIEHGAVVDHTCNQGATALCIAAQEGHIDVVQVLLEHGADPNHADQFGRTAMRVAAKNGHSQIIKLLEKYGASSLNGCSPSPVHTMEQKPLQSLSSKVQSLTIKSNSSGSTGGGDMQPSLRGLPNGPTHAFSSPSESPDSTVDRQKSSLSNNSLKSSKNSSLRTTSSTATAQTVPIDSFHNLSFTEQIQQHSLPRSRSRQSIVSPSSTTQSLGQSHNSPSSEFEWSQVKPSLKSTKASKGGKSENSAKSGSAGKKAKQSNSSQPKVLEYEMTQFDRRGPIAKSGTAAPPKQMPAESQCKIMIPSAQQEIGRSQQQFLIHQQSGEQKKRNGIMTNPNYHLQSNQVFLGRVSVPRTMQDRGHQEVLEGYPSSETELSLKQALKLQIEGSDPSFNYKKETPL

Legend:
Experiment in all cases: log2 fold change, soluble protein after heating vs DMSO (PISA); higher = thermal stabilisation; K562 lysate, 10 uM; active = over 0.2 and 3.5 SD of the protein, either way, in both replicates (recomputed)
alvocidib = compound: CN1CC[C@H](c2c(O)cc(O)c3c(=O)cc(-c4ccccc4Cl)oc23)[C@H](O)C1 [alvocidib]
Outline: (§1)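 Following dounce homogenisation of K562 pellets in PBS pH 7.4 with 1 mM MgCl2, crude extract at 1 mg/mL protein was incubated for 30 min with 10 μM compound. Aliquots were then heated for 3 min over 48°C-58°C and pooled, NP-40 was added to 0.5% at 4°C, and soluble protein was recovered as the supernatant at 21,000xg for 90 min. Channel-sum-equalised TMTpro 16plex LC-MS/MS quantified this protein. Each value, from duplicates, is a log-two fold change in thermal stability relative to solvent controls.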

Tubastatin A = compound: CN1CCc2c(c3ccccc3n2Cc2ccc(C(=O)NO)cc2)C1 [Tubastatin A]
Outline: as §1

[1] = compound: CNC(=O)C1=CC=CC=C1NC2=NC(=NC=C2Cl)NC3=C(C=C(C=C3)N4CCOCC4)OC
Outline: as §1

[2] = compound: CNc1nc(-c2ccc3c(N)n[nH]c3c2)cc(N2C[C@@H](C(=O)NC3CCCCC3)CC[C@H]2C)n1
Outline: as §1

[3] = compound: COc1cc2nc(-c3cc(F)ccc3O)nc(N[C@@H]3CNC[C@H]3C(C)(C)O)c2cc1OC
Outline: as §1

lapatinib = compound: CS(=O)(=O)CCNCc1ccc(-c2ccc3ncnc(Nc4ccc(OCc5cccc(F)c5)c(Cl)c4)c3c2)o1 [lapatinib]
Outline: as §1

crizotinib = compound: C[C@@H](Oc1cc(-c2cnn(C3CCNCC3)c2)cnc1N)c1c(Cl)ccc(F)c1Cl [crizotinib]
Outline: as §1

[4] = compound: C[C@H](C1=CC=C(C=C1)C(=O)NC2=C3C=CNC3=NC=C2)N
Outline: as §1

duvelisib = compound: C[C@H](Nc1ncnc2nc[nH]c12)c1cc2cccc(Cl)c2c(=O)n1-c1ccccc1 [duvelisib]
Outline: as §1

gandotinib = compound: Cc1cc(Nc2cc(CN3CCOCC3)c3nc(C)c(Cc4ccc(Cl)cc4F)n3n2)n[nH]1 [gandotinib]
Outline: as §1

doramapimod = compound: Cc1ccc(-n2nc(C(C)(C)C)cc2NC(=O)Nc2ccc(OCCN3CCOCC3)c3ccccc23)cc1 [doramapimod]
Outline: as §1

[5] = compound: Cc1cccc(CC(=O)N2CCc3c2ccc(-c2cn(C)c4ncnc(N)c24)c3F)n1
Outline: as §1

encorafenib = compound: COC(=O)N[C@@H](C)CNc1nccc(-c2cn(C(C)C)nc2-c2cc(Cl)cc(NS(C)(=O)=O)c2F)n1 [encorafenib]
Outline: as §1

[6] = compound: COC(=O)[C@H](CCSC)NC(=O)C1=C(C=C(C=C1)NC[C@H](CS)N)C2=CC=CC=C2
Outline: as §1

alisertib = compound: COc1cc(Nc2ncc3c(n2)-c2ccc(Cl)cc2C(c2c(F)cccc2OC)=NC3)ccc1C(=O)O [alisertib]
Outline: as §1

gefitinib = compound: COc1cc2ncnc(Nc3ccc(F)c(Cl)c3)c2cc1OCCCN1CCOCC1 [gefitinib]
Outline: as §1

pictilisib = compound: CS(=O)(=O)N1CCN(Cc2cc3nc(-c4cccc5[nH]ncc45)nc(N4CCOCC4)c3s2)CC1 [pictilisib]
Outline: as §1

tozasertib = compound: Cc1cc(Nc2cc(N3CCN(C)CC3)nc(Sc3ccc(NC(=O)C4CC4)cc3)n2)n[nH]1 [tozasertib]
Outline: as §1

bafetinib = compound: Cc1ccc(NC(=O)c2ccc(CN3CC[C@H](N(C)C)C3)c(C(F)(F)F)c2)cc1Nc1nccc(-c2cncnc2)n1 [bafetinib]
Outline: as §1

defactinib = compound: CNC(=O)c1ccc(Nc2ncc(C(F)(F)F)c(NCc3nccnc3N(C)S(C)(=O)=O)n2)cc1 [defactinib]
Outline: as §1

| Target | log2 fold change (alvocidib) | log2 fold change (Tubastatin A) | log2 fold change [1] | log2 fold change [2] | log2 fold change [3] | log2 fold change (lapatinib) | log2 fold change (crizotinib) | log2 fold change [4] | log2 fold change (duvelisib) | log2 fold change (gandotinib) | log2 fold change (doramapimod) | log2 fold change [5] | log2 fold change (encorafenib) | log2 fold change [6] | log2 fold change (alisertib) | log2 fold change (gefitinib) | log2 fold change (pictilisib) | log2 fold change (tozasertib) | log2 fold change (bafetinib) | log2 fold change (defactinib) |
| --- | --- | --- | --- | --- | --- | --- | --- | --- | --- | --- | --- | --- | --- | --- | --- | --- | --- | --- | --- | --- |
| ALDH3A1 (UniProt P30838) | inactive: -0.218 | inactive: 0.366 | inactive: -0.065 | inactive: -0.138 | inactive: 0.165 | inactive: -0.002 | inactive: -0.134 | inactive: -0.721 | inactive: -0.061 | inactive: 0.569 | inactive: 0.015 | inactive: 0.586 | – | – | – | – | – | – | – | – |
| ALAS1 (UniProt P13196) | inactive: -0.027 | inactive: 0.031 | – | inactive: 0.177 | inactive: -0.183 | inactive: -0.062 | – | inactive: -0.121 | inactive: -0.369 | inactive: 0.002 | – | inactive: 0.145 | inactive: 0.12 | inactive: -0.279 | inactive: -0.089 | inactive: 0.001 | inactive: -0.016 | inactive: 0.013 | inactive: 0.103 | – |
| ANXA2 (UniProt H0YL33) | inactive: 0.315 | inactive: 0.109 | inactive: -0.177 | inactive: 0.222 | inactive: 0.005 | inactive: 0.026 | inactive: -0.048 | inactive: 0.284 | inactive: 0.044 | inactive: -0.163 | inactive: 0.017 | inactive: -0.054 | – | – | inactive: 0.001 | inactive: 0.097 | inactive: -0.028 | – | inactive: 0.031 | – |
| ANKRD29 (UniProt Q8N6D5) | inactive: -0.158 | – | inactive: -0.139 | inactive: -0.054 | inactive: 0.048 | inactive: -0.117 | inactive: -0.26 | inactive: -0.284 | inactive: 0.052 | inactive: 0.315 | inactive: 0.036 | inactive: 0.253 | inactive: -0.1 | inactive: 0.164 | inactive: 0.014 | inactive: 0.383 | inactive: -0.071 | inactive: -0.04 | inactive: 0.134 | inactive: -0.09 |
| ANAPC11 (UniProt Q9NYG5) | inactive: -0.026 | inactive: -0.009 | – | inactive: -0.07 | – | – | inactive: -0.089 | inactive: 0.112 | inactive: -0.186 | inactive: 0.039 | inactive: 0.003 | inactive: -0.182 | – | – | – | – | inactive: -0.162 | – | inactive: 0.099 | – |
| ANAPC15 isoform 2 (UniProt P60006) | inactive: 0.046 | – | inactive: 0.037 | inactive: 0.214 | – | – | inactive: 0.039 | inactive: 0.002 | inactive: -0.056 | inactive: 0.074 | inactive: -0.01 | inactive: 0 | inactive: -0.041 | inactive: 0.221 | inactive: 0.072 | inactive: -0.096 | – | inactive: -0.194 | – | – |
| ANKRD11 (UniProt Q6UB99) | inactive: -0.25 | inactive: -0.017 | inactive: 0.049 | inactive: -0.128 | – | – | inactive: -0.122 | inactive: 0.103 | inactive: 0.11 | inactive: -0.07 | inactive: 0.157 | inactive: 0.314 | inactive: -0.031 | inactive: 0.056 | – | – | – | inactive: -0.048 | – | inactive: 0.031 |
| AP1S2 (UniProt P56377) | inactive: -0.486 | inactive: -0.023 | inactive: 0.098 | – | inactive: 0.014 | inactive: -0.012 | inactive: -0.162 | inactive: -0.282 | – | inactive: 0.302 | inactive: 0.162 | inactive: -0.139 | inactive: -0.119 | inactive: -0.044 | inactive: 0.187 | inactive: -0.046 | inactive: 0.057 | inactive: -0.088 | inactive: -0.393 | inactive: 0.008 |
| ANKRD30A (UniProt Q9BXX3) | inactive: -0.148 | inactive: -0.294 | – | inactive: 0.017 | active: 1.45 | inactive: -0.228 | inactive: 0.128 | inactive: -0.155 | inactive: -0.038 | active: 1.59 | inactive: -0.068 | inactive: 0.918 | inactive: 0.053 | inactive: 0 | inactive: -0.009 | inactive: -0.03 | inactive: 0.028 | inactive: 0.281 | inactive: 0.069 | – |
| ANGPTL4 (UniProt M0R3A2) | inactive: 0.025 | inactive: 0.226 | inactive: -0.056 | – | inactive: -0.144 | inactive: 0.353 | – | inactive: 0.283 | – | inactive: -0.309 | – | inactive: -0.192 | inactive: 0.974 | inactive: -0.008 | – | – | inactive: 0.266 | inactive: 0.108 | inactive: 0.003 | inactive: -0.001 |
| ALKBH7 (UniProt Q9BT30) | inactive: -0.016 | inactive: -0.045 | inactive: 0.35 | inactive: -0.029 | – | – | inactive: -0.049 | inactive: 0.289 | inactive: 0.091 | inactive: 0.08 | inactive: -0.062 | inactive: 0.187 | inactive: -0.115 | inactive: 0.201 | inactive: 0.333 | inactive: -0.108 | – | inactive: -0.045 | – | – |
| AP1AR (UniProt Q63HQ0) | inactive: -0.033 | inactive: 0.089 | inactive: -0.061 | – | inactive: -0.035 | inactive: 0.021 | inactive: -0.049 | inactive: 0.064 | – | inactive: -0.046 | inactive: 0.078 | inactive: 0.016 | inactive: -0.031 | inactive: -0.004 | inactive: 0.047 | inactive: 0.087 | inactive: 0.097 | inactive: 0.092 | inactive: -0.091 | inactive: 0.016 |
| ALDH3A2 isoform 2 (UniProt P51648) | inactive: -0.102 | inactive: -0.393 | – | inactive: -0.347 | – | – | – | inactive: -0.38 | inactive: -0.423 | inactive: 0.04 | – | inactive: 0.218 | – | – | inactive: 0.067 | inactive: -0.07 | – | – | – | – |
| AMMECR1L (UniProt Q6DCA0) | inactive: 0.05 | inactive: -0.064 | inactive: -0.113 | inactive: -0.001 | – | – | inactive: 0.047 | inactive: -0.087 | inactive: 0.043 | inactive: 0.124 | inactive: 0.099 | inactive: 0.043 | inactive: -0.025 | inactive: -0.081 | – | – | – | inactive: 0.079 | – | inactive: 0.061 |
| AP1S3 isoform 4 (UniProt Q96PC3) | inactive: -0.021 | inactive: -0.053 | inactive: -0.092 | inactive: 0.052 | inactive: -0.113 | inactive: -0.004 | – | inactive: -0.084 | inactive: -0.135 | inactive: 0.024 | – | inactive: 0.139 | – | – | inactive: 0.156 | inactive: 0 | inactive: -0.153 | – | inactive: 0.113 | – |
| ANKRD50 (UniProt Q9ULJ7) | inactive: -0.047 | inactive: -0.063 | inactive: -0.001 | – | inactive: -0.039 | inactive: 0.019 | inactive: -0.125 | inactive: -0.105 | – | inactive: 0.034 | inactive: 0.069 | inactive: 0.151 | inactive: -0.259 | inactive: 0.193 | inactive: -0.079 | inactive: -0.042 | – | inactive: 0.114 | – | – |

Copied from the entries so far for reference:

| Target | log2 fold change (alvocidib) | log2 fold change (Tubastatin A) | log2 fold change [1] | log2 fold change [2] | log2 fold change [3] | log2 fold change (lapatinib) | log2 fold change (crizotinib) | log2 fold change [4] | log2 fold change (duvelisib) | log2 fold change (gandotinib) | log2 fold change (doramapimod) | log2 fold change [5] | log2 fold change (encorafenib) | log2 fold change [6] | log2 fold change (alisertib) | log2 fold change (gefitinib) | log2 fold change (pictilisib) | log2 fold change (tozasertib) | log2 fold change (bafetinib) | log2 fold change (defactinib) |
| --- | --- | --- | --- | --- | --- | --- | --- | --- | --- | --- | --- | --- | --- | --- | --- | --- | --- | --- | --- | --- |
| ALDH3A1 (UniProt P30838) | inactive: -0.218 | inactive: 0.366 | inactive: -0.065 | inactive: -0.138 | inactive: 0.165 | inactive: -0.002 | inactive: -0.134 | inactive: -0.721 | inactive: -0.061 | inactive: 0.569 | inactive: 0.015 | inactive: 0.586 | – | – | – | – | – | – | – | – |
| ALAS1 (UniProt P13196) | inactive: -0.027 | inactive: 0.031 | – | inactive: 0.177 | inactive: -0.183 | inactive: -0.062 | – | inactive: -0.121 | inactive: -0.369 | inactive: 0.002 | – | inactive: 0.145 | inactive: 0.12 | inactive: -0.279 | inactive: -0.089 | inactive: 0.001 | inactive: -0.016 | inactive: 0.013 | inactive: 0.103 | – |
| ANXA2 (UniProt H0YL33) | inactive: 0.315 | inactive: 0.109 | inactive: -0.177 | inactive: 0.222 | inactive: 0.005 | inactive: 0.026 | inactive: -0.048 | inactive: 0.284 | inactive: 0.044 | inactive: -0.163 | inactive: 0.017 | inactive: -0.054 | – | – | inactive: 0.001 | inactive: 0.097 | inactive: -0.028 | – | inactive: 0.031 | – |
